Test results taken from the supplement of paper PMC10849652.
Some of the results follow. Residues, ends and D or L forms follow the SMILES beside them. *: point of attachment. Cbz = O=C(OCc1ccccc1)*

Chains of the proteins cited; added tags and fusions are not shown. Lines headed by an entry give the natural chain unless they say otherwise; changes in a name come on top.
UniProt Q7RTP6, whole entry, looked up: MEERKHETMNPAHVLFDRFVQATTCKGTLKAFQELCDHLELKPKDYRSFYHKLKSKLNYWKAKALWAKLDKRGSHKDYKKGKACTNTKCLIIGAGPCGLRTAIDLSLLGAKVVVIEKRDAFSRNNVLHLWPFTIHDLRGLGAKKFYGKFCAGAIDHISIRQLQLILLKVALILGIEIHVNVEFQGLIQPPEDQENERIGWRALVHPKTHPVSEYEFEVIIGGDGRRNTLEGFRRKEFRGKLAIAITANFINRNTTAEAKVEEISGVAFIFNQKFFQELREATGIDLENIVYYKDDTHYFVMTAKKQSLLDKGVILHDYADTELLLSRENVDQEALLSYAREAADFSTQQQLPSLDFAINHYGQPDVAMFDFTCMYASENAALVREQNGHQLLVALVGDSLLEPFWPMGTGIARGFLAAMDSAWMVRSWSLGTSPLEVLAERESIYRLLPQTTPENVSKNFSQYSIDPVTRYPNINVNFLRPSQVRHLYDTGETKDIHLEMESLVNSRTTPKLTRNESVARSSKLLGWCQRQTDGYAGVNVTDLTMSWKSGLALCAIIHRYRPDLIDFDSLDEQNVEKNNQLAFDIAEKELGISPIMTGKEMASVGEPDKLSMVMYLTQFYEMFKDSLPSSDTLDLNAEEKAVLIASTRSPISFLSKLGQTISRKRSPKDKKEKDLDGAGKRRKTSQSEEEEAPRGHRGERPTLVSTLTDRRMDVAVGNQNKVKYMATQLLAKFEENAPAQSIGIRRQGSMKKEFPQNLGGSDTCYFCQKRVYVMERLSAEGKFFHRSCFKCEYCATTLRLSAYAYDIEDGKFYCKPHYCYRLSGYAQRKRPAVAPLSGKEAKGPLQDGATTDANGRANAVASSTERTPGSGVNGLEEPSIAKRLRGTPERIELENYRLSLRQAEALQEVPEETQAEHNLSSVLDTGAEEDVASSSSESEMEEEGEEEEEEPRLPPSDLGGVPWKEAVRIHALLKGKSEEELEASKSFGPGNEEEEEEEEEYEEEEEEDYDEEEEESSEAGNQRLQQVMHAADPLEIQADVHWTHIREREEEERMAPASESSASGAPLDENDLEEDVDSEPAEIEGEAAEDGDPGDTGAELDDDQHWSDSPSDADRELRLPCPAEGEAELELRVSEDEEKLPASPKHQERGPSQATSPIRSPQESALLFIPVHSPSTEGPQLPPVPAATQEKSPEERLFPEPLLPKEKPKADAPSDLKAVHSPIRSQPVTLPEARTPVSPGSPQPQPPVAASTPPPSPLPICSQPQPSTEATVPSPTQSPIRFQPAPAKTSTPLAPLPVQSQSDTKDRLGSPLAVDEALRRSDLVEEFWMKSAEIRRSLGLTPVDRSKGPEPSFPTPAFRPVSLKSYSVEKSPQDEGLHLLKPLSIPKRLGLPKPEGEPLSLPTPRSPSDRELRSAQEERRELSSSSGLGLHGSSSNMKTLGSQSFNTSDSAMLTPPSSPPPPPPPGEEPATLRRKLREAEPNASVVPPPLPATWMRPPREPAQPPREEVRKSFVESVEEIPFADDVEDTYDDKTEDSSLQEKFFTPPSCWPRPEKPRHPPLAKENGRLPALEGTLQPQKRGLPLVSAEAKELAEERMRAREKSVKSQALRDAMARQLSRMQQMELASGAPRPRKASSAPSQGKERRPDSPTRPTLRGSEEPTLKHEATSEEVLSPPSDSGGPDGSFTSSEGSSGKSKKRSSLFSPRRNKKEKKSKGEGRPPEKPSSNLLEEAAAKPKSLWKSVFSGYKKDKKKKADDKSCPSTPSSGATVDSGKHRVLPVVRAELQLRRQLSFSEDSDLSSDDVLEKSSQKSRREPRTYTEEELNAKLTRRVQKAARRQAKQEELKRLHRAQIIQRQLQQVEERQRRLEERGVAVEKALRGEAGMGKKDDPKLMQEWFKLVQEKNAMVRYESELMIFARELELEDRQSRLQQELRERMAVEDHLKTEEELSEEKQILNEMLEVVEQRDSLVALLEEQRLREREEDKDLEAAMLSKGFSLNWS
UniProt Q99547: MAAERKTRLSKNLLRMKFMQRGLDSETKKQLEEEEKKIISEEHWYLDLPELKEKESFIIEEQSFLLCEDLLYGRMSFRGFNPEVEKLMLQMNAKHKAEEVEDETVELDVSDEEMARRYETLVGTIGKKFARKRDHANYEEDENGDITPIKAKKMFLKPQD
UniProt Q8N4V1: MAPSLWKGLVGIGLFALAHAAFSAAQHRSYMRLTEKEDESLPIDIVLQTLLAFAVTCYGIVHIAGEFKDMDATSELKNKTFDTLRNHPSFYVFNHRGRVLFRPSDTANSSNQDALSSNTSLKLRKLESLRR
UniProt O96007: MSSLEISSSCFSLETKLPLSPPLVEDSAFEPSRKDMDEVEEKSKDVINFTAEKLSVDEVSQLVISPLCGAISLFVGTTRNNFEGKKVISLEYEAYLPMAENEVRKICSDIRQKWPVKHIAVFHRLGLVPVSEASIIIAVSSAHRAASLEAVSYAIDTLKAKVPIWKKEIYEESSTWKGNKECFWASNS
UniProt Q6IN84: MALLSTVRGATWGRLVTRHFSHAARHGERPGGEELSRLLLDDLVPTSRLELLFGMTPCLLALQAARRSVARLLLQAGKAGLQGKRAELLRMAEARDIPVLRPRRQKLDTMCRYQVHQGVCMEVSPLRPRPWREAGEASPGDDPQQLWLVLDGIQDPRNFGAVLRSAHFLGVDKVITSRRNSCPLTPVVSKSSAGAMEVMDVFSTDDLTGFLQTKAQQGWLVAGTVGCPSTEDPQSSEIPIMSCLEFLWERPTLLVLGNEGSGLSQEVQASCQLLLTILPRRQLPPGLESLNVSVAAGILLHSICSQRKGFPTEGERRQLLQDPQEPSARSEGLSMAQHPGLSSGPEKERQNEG
UniProt Q8IY33: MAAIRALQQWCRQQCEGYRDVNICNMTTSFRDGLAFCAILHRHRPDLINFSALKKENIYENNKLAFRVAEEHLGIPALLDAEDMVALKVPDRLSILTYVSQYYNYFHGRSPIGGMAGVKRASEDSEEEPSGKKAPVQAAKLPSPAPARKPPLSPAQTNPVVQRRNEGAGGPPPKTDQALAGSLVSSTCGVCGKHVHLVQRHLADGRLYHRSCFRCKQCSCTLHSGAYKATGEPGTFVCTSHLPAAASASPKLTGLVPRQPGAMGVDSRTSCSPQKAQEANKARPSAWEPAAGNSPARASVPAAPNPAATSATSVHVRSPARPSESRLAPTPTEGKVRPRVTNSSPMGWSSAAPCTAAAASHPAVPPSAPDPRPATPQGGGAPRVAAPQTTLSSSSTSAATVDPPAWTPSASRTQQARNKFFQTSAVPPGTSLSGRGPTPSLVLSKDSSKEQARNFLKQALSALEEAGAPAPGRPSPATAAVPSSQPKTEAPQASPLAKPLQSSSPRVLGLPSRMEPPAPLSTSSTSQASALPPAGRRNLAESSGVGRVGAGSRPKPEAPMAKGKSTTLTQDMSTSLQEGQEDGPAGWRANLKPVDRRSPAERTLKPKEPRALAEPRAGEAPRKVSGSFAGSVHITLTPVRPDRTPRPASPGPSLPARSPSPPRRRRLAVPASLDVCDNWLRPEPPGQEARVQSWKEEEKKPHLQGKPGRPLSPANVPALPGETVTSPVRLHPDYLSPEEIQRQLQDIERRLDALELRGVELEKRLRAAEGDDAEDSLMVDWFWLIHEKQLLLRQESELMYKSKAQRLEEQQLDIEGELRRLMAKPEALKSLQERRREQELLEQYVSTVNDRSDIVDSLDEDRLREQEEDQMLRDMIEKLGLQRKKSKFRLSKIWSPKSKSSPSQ
UniProt O95822: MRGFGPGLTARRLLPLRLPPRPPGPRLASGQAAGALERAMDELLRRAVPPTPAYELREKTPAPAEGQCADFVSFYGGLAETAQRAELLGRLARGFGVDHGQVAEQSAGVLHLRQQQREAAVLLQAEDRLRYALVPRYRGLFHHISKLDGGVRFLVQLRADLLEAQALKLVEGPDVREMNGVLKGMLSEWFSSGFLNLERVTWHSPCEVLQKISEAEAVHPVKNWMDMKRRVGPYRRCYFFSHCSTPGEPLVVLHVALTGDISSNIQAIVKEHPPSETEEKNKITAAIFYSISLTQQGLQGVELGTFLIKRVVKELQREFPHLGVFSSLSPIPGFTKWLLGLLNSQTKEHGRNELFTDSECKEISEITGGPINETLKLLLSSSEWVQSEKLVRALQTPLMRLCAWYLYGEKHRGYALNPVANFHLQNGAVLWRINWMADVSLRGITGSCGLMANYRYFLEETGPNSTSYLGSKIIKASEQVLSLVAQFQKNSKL
UniProt O75352: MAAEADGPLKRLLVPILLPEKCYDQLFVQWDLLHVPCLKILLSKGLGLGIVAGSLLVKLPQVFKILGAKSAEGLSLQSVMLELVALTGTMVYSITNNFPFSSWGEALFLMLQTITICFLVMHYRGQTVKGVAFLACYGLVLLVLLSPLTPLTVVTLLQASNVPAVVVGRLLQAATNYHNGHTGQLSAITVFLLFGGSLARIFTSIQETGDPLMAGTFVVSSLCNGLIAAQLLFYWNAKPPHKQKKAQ
UniProt Q567V2: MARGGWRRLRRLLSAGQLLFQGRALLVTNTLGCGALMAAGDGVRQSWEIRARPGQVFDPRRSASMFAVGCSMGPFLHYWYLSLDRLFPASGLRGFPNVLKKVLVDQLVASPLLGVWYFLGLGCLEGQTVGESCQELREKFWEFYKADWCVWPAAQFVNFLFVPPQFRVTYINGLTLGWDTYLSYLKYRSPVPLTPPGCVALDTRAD
UniProt P34949: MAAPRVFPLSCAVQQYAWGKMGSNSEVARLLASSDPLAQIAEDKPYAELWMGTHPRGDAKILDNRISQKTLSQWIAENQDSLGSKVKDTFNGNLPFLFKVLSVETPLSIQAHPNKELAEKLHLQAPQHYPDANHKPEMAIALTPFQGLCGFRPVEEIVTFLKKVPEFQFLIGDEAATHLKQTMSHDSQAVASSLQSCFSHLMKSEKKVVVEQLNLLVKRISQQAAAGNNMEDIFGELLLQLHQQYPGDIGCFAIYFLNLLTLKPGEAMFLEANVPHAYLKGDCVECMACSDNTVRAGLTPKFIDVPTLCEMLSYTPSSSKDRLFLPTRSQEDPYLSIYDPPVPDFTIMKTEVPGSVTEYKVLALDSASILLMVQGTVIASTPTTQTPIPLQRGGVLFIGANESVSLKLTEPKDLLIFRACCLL
UniProt Q9NZW5: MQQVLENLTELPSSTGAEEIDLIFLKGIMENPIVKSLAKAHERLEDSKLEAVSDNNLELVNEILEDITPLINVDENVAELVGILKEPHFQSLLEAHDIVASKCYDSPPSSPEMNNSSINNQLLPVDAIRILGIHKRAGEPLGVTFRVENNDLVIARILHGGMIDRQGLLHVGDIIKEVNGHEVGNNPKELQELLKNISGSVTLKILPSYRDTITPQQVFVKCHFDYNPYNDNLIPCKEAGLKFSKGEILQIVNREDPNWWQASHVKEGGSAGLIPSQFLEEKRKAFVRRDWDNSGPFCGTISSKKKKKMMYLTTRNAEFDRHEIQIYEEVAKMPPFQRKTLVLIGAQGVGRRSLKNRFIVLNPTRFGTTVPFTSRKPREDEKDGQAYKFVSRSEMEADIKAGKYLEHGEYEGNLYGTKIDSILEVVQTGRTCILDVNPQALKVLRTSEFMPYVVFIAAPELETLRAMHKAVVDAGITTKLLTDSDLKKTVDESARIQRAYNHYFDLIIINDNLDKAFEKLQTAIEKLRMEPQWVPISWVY
UniProt Q96EN8: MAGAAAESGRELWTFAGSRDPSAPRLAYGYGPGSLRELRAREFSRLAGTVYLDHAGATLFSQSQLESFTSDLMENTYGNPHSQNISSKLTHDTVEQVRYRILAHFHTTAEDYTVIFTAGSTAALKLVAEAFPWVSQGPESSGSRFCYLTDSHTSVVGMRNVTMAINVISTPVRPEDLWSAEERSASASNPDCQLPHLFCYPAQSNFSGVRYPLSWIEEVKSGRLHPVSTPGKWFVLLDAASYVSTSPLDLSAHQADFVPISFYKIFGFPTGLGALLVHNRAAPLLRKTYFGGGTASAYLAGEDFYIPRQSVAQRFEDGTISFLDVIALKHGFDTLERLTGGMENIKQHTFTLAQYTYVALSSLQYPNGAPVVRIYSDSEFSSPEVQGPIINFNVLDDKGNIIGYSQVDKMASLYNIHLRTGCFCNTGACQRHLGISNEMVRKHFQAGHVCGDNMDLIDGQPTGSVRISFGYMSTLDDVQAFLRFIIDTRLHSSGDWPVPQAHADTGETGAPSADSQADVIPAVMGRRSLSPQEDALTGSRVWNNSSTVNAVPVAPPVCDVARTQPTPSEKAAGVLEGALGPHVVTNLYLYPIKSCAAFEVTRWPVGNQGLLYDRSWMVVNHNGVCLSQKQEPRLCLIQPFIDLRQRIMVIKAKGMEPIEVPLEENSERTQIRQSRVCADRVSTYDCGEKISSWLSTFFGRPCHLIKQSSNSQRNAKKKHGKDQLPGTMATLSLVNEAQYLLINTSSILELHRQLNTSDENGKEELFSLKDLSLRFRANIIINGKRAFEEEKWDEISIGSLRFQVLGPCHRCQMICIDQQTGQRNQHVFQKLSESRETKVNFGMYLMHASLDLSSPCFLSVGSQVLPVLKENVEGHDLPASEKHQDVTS

Assays:
Assay in all cases: log2 fold change, soluble protein after heating vs DMSO (PISA); higher = thermal stabilisation; K562 cells, 10 uM, 30 min; active = over 0.2 and 3.5 SD of the protein, either way, in both replicates (recomputed)
IRAK-1-4 Inhibitor I = compound: C1COCCN1CCN2C3=CC=CC=C3N=C2NC(=O)C4=CC(=CC=C4)[N+](=O)[O-] [IRAK-1-4 Inhibitor I]
Outline: (§1)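 Quantification of soluble protein used TMTpro 16plex LC-MS/MS, with channel sums equalised. Samples were the supernatant after 21,000xg for 90 min of pooled aliquots from K562 cells (2×10^6 cells/mL) treated with 10 μM compound for 30 min, heated for 3 min over 48°C-58°C, and extracted in PBS with 0.5% NP-40 at 4°C. Values, from duplicates, describe thermal stability against control samples on a log2 fold-change scale.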

ibrutinib = compound: C=CC(=O)N1CCC[C@@H](n2nc(-c3ccc(Oc4ccccc4)cc3)c3c(N)ncnc32)C1 [ibrutinib]
Outline: as §1

[1] = compound: CC(=O)c1cnc2ccc(-c3cc(Cl)c(O)c(Cl)c3)nc2c1N[C@H]1CC[C@H](CN(C)C)CC1
Outline: as §1

ralimetinib = compound: CC(C)(C)Cn1c(N)nc2ccc(-c3[nH]c(C(C)(C)C)nc3-c3ccc(F)cc3)nc21 [ralimetinib]
Outline: as §1

[2] = compound: CC(C)(O)CC(=O)NCCn1ccc2ncnc(Nc3ccc(Oc4cccc(C(F)(F)F)c4)c(Cl)c3)c21
Outline: as §1

[3] = compound: CC(C)C1=C2N=C(C=C(N2N=C1)NCC3=CC=CC=C3)NCCCCCCN
Outline: as §1

[4] = compound: CC(C)C[C@@H](C=O)NC(=O)[C@H](CC(C)C)NC(=O)[C@H](CC(C)C)NC(=O)OCc1ccccc1
Outline: as §1

pinometostat = compound: CC(C)N(C[C@H]1O[C@@H](n2cnc3c(N)ncnc32)[C@H](O)[C@@H]1O)[C@H]1C[C@@H](CCc2nc3cc(C(C)(C)C)ccc3[nH]2)C1 [pinometostat]
Outline: as §1

[5] = compound: CC1=C(C(CC(=O)N1)C2=CC=C(C=C2)C(F)(F)F)C(=O)NC3=C(C=C4C(=C3)C=NN4)F
Outline: as §1

[6] = compound: CC1=C(C2=C(C=C1)C(=O)C3=CC=CC=C3N2CCCN)C
Outline: as §1

Measured: log2 fold change

MMAB (UniProt Q96EY8)
inactive: IRAK-1-4 Inhibitor I 0.04 | ibrutinib 0.018 | [1] 0.008 | ralimetinib -0.077 | [2] -0.026 | [3] -0.003 | [4] 0 | pinometostat -0.046 | [5] 0.01 | [6] -0.003

MICAL3 (UniProt Q7RTP6)
inactive: IRAK-1-4 Inhibitor I 0.04 | ibrutinib -0.013 | [1] -0.032 | ralimetinib -0.145 | [2] -0.029 | [3] -0.094 | [4] 0.053 | pinometostat -0.051 | [5] 0.037 | [6] 0.043

MRPL3 (UniProt P09001)
inactive: IRAK-1-4 Inhibitor I -0.077 | ibrutinib -0.023 | [1] 0.059 | ralimetinib 0.06 | [2] 0.015 | [3] 0.025 | [4] 0.253 | pinometostat 0.12 | [5] -0.009 | [6] -0.048

MRPL19 (UniProt P49406)
inactive: IRAK-1-4 Inhibitor I -0.082 | ibrutinib -0.029 | [1] 0.108 | ralimetinib 0.086 | [2] 0.016 | [3] 0.036 | [4] 0.056 | pinometostat 0.158 | [5] 0.016 | [6] -0.032

2 consecutive records from above, quoted:
MRPL3 (UniProt P09001)
inactive: IRAK-1-4 Inhibitor I -0.077 | ibrutinib -0.023 | [1] 0.059 | ralimetinib 0.06 | [2] 0.015 | [3] 0.025 | [4] 0.253 | pinometostat 0.12 | [5] -0.009 | [6] -0.048

MRPL19 (UniProt P49406)
inactive: IRAK-1-4 Inhibitor I -0.082 | ibrutinib -0.029 | [1] 0.108 | ralimetinib 0.086 | [2] 0.016 | [3] 0.036 | [4] 0.056 | pinometostat 0.158 | [5] 0.016 | [6] -0.032

(list continues)

MRPL16 (UniProt Q9NX20)
inactive: IRAK-1-4 Inhibitor I -0.053 | ibrutinib -0.032 | [1] 0.151 | ralimetinib 0.102 | [2] 0.037 | [3] 0.039 | [4] 0.083 | pinometostat 0.148 | [5] 0.064 | [6] -0.163

MRPL14 (UniProt Q6P1L8)
inactive: IRAK-1-4 Inhibitor I 0.007 | ibrutinib -0.047 | [1] -0.005 | ralimetinib -0.027 | [2] -0.101 | [3] -0.049 | [4] 0.147 | pinometostat -0.118 | [5] -0.012 | [6] 0.103

MPHOSPH6 (UniProt Q99547)
inactive: IRAK-1-4 Inhibitor I -0.221 | ibrutinib -0.009 | [1] -0.033 | ralimetinib 0.004 | [2] 0.017 | [3] -0.114 | [4] 0.162 | pinometostat 0.101 | [5] -0.035 | [6] 0

MRPL33 (UniProt O75394)
inactive: IRAK-1-4 Inhibitor I -0.08 | ibrutinib 0.093 | [1] 0.069 | ralimetinib 0.062 | [2] -0.14 | [3] 0 | [4] 0.071 | pinometostat 0.072 | [5] -0.052 | [6] 0.17

MMGT1 isoform 2 (UniProt Q8N4V1)
inactive: IRAK-1-4 Inhibitor I 0.007 | ibrutinib -0.002 | [1] -0.015 | ralimetinib -0.014 | [2] -0.011 | [3] -0.028 | [4] -0.023 | pinometostat -0.049 | [5] -0.001 | [6] 0.017

MOCS2 (UniProt O96007)
inactive: IRAK-1-4 Inhibitor I 0.061 | ibrutinib 0.039 | [1] 0.003 | ralimetinib -0.04 | [2] -0.022 | [3] 0.087 | [4] -0.017 | pinometostat -0.017 | [5] -0.002 | [6] -0.018

MRM1 (UniProt Q6IN84)
inactive: IRAK-1-4 Inhibitor I -0.042 | ibrutinib 0.03 | [1] 0.056 | ralimetinib 0.036 | [2] 0.095 | [3] -0.059 | [4] 0.044 | pinometostat 0.118 | [5] 0.058 | [6] -0.183

MICALL2 (UniProt Q8IY33)
inactive: IRAK-1-4 Inhibitor I -0.045 | ibrutinib -0.053 | [1] -0.064 | ralimetinib -0.034 | [2] -0.053 | [3] -0.119 | [4] -0.057 | pinometostat 0.021 | [5] -0.015 | [6] -0.016

MRPL10 isoform 2 (UniProt Q7Z7H8)
inactive: IRAK-1-4 Inhibitor I -0.12 | ibrutinib -0.006 | [1] -0.026 | ralimetinib -0.016 | [2] 0.002 | [3] -0.024 | [4] 0.052 | pinometostat 0.112 | [5] -0.01 | [6] -0.016

MOSPD2 (UniProt Q8NHP6)
inactive: IRAK-1-4 Inhibitor I -0.008 | ibrutinib 0.134 | [1] -0.025 | ralimetinib -0.038 | [2] 0.087 | [3] 0.042 | [4] 0.108 | pinometostat 0.069 | [5] 0.011 | [6] -0.012

MRPL53 (UniProt Q96EL3)
inactive: IRAK-1-4 Inhibitor I -0.095 | ibrutinib -0.05 | [1] 0.034 | ralimetinib 0.042 | [2] -0.004 | [3] -0.006 | [4] 0.046 | pinometostat 0.106 | [5] 0.044 | [6] 0.031

MLYCD (UniProt O95822)
inactive: IRAK-1-4 Inhibitor I 0.054 | ibrutinib -0.074 | [1] 0.075 | ralimetinib 0.043 | [2] -0.02 | [3] -0.036 | [4] -0.065 | pinometostat -0.003 | [5] -0.048 | [6] -0.041

MRPL41 (UniProt Q8IXM3)
inactive: IRAK-1-4 Inhibitor I -0.085 | ibrutinib 0 | [1] 0.055 | ralimetinib 0.01 | [2] 0.059 | [3] 0.07 | [4] 0.058 | pinometostat 0.161 | [5] -0.014 | [6] -0.026

MPDU1 (UniProt O75352)
inactive: IRAK-1-4 Inhibitor I 0.022 | ibrutinib -0.021 | [1] -0.049 | ralimetinib -0.254 | [2] 0.025 | [3] 0.078 | [4] -0.154 | pinometostat -0.237 | [5] -0.006 | [6] 0.164

MRPL35 (UniProt Q9NZE8)
inactive: IRAK-1-4 Inhibitor I -0.021 | ibrutinib -0.03 | [1] 0.077 | ralimetinib 0.109 | [2] 0 | [3] -0.046 | [4] 0.059 | pinometostat 0.131 | [5] 0.026 | [6] -0.1

MPV17L2 (UniProt Q567V2)
inactive: IRAK-1-4 Inhibitor I 0.022 | ibrutinib 0.087 | [1] 0.029 | ralimetinib 0.013 | [2] -0.078 | [3] 0.163 | [4] -0.023 | pinometostat -0.033 | [5] -0.03 | [6] 0.048

MPI (UniProt P34949)
inactive: IRAK-1-4 Inhibitor I 0.02 | ibrutinib -0.005 | [1] -0.029 | ralimetinib 0.028 | [2] -0.002 | [3] 0.089 | [4] -0.02 | pinometostat -0.01 | [5] 0.025 | [6] -0.033

MRPL27 (UniProt Q9P0M9)
inactive: IRAK-1-4 Inhibitor I -0.011 | ibrutinib -0.028 | [1] 0.116 | ralimetinib 0.112 | [2] -0.028 | [3] 0.219 | [4] 0.06 | pinometostat 0.167 | [5] 0.074 | [6] -0.112

MPP6 (UniProt Q9NZW5)
inactive: IRAK-1-4 Inhibitor I -0.01 | ibrutinib -0.016 | [1] -0.197 | ralimetinib -0.049 | [2] -0.024 | [3] 0.057 | [4] 0.048 | pinometostat 0.01 | [5] -0.009 | [6] 0.05

MRPL23 (UniProt Q16540)
inactive: IRAK-1-4 Inhibitor I -0.111 | ibrutinib -0.008 | [1] 0.078 | ralimetinib 0.059 | [2] 0.028 | [3] 0.058 | [4] 0.151 | pinometostat 0.126 | [5] 0.018 | [6] -0.046

MRPL2 (UniProt Q5T653)
inactive: IRAK-1-4 Inhibitor I -0.087 | ibrutinib -0.069 | [1] 0.102 | ralimetinib 0.023 | [2] 0.149 | [3] 0.041 | [4] 0.078 | pinometostat 0.111 | [5] 0.046 | [6] -0.103

MRPL32 (UniProt Q9BYC8)
inactive: IRAK-1-4 Inhibitor I -0.028 | ibrutinib 0.021 | [1] 0.121 | ralimetinib 0.027 | [2] 0.031 | [3] 0.074 | [4] 0.154 | pinometostat 0.063 | [5] 0.09 | [6] -0.033

MOCOS (UniProt Q96EN8)
inactive: IRAK-1-4 Inhibitor I 0.039 | ibrutinib 0.031 | [1] 0.003 | ralimetinib -0.074 | [2] -0.036 | [3] 0.076 | [4] 0.072 | pinometostat 0.063 | [5] -0.045 | [6] 0.025
